Assay results: PubChem BioAssay AID248 (DTP/NCI, 2004)
The list shows only some results of the screen, not a fair sample: it covers a few groups of compounds. Not every dose and run of a compound is shown. T/C gives the treated animals as a percentage of the vehicle group. Some entries give survivors of the animals treated and no T/C: the source holds a T/C of zero for them, seemingly a mark for toxic or unscored doses. Some doses without a T/C left all or most animals alive at the check, yet need not have been tolerated: survival well below the control is almost never listed, so the zero probably covers shortened survival too. Survivors were counted at the toxicity check, usually on the fifth day, unless a day is given; later deaths do not show. Schedule codes are those of the source, taken here to give the interval after Q, in days (D) or hours (H), and the number of doses after X. Where survival is the endpoint, this PubChem deposit counts one and a half times the control or more as active, and values a quarter to a half above the control carry no call in these data; other NCI protocols may use other cut-offs. Signs of the kind (2×) say how often a value occurs here. Some entries were tested several times; the values are given in rising order. Some T/C values carry the count of animals alive at the toxicity check (mostly the fifth day); without a count or a note in brackets, all were alive then.

System: L1210 leukemia ip in BDF1 mice, survival T/C
Test: NCI In Vivo Anticancer Drug Screen. Data for tumor model L1210 Leukemia (intraperitoneal) in B6D2F1 (BDF1) mice
Conditions: T/C endpoint: mean survival time, higher T/C = longer survival

**Q.** Which T/C (dose: 1.0 mg/kg/injection, schedule: Q01DX015 (ip), vehicle: saline) does the source give for `COC1OC(CNCCCl)C2OC(C)(C)OC12` (stereo unspecified) here?
**A.** 123 % of control

**Q.** What about the T/C (dose: 1.6 mg/kg/injection, schedule: Q01DX015 (ip), vehicle: saline) of the same compound?
**A.** 123 % of control

**Q.** And the T/C (dose: 2.4 mg/kg/injection, schedule: Q01DX015 (ip), vehicle: saline)?
**A.** 129 % of control

**Q.** What about the T/C (dose: 3.1 mg/kg/injection, schedule: Q01DX015 (ip), vehicle: saline) of the same compound?
**A.** 93, 97, 102 % of control

**Q.** What about the T/C (dose: 3.6 mg/kg/injection, schedule: Q01DX015 (ip), vehicle: saline) of the same compound?
**A.** 134 and 138 % of control

**Q.** What about the T/C (dose: 5.5 mg/kg/injection, schedule: Q01DX015 (ip), vehicle: saline) of the same compound?
**A.** 142 % of control

**Q.** What about the survivor count (dose: 6.25 mg/kg/injection, schedule: Q01DX009 (ip), vehicle: water) of the same compound?
**A.** 10 of 10

**Q.** And the T/C (dose: 6.25 mg/kg/injection, schedule: Q01DX015 (ip), vehicle: clinical formulation)?
**A.** 94 and 102 % of control

**Q.** What about the T/C (dose: 6.25 mg/kg/injection, schedule: Q01DX015 (ip), vehicle: saline, evaluated on day 30) of the same compound?
**A.** 96, 98, 112 % of control

**Q.** And the T/C (dose: 6.25 mg/kg/injection, schedule: Q01DX015 (ip), vehicle: saline, run until all animals had died)?
**A.** 97 % of control

**Q.** What about the T/C (dose: 6.25 mg/kg/injection, schedule: Q01DX015 (ip), vehicle: water) of the same compound?
**A.** 100 and 102 % of control

**Q.** And the T/C (dose: 8.0 mg/kg/injection, schedule: Q03HX024 (ip), vehicle: saline)?
**A.** 101 % of control

**Q.** And the T/C (dose: 8.3 mg/kg/injection, schedule: Q01DX015 (ip), vehicle: saline)?
**A.** 139 % of control

**Q.** What about the T/C (dose: 12.5 mg/kg/injection, schedule: Q01DX009 (ip), vehicle: water) of the same compound?
**A.** 103 % of control

**Q.** What about the T/C (dose: 12.5 mg/kg/injection, schedule: Q01DX015 (ip), vehicle: clinical formulation) of the same compound?
**A.** 94 and 97 % of control

**Q.** What about the T/C (dose: 12.5 mg/kg/injection, schedule: Q01DX015 (ip), vehicle: saline, evaluated on day 30) of the same compound?
**A.** 94, 95, 96, 102, 103, 107, 172, 221 % of control

**Q.** What about the T/C (dose: 12.5 mg/kg/injection, schedule: Q01DX015 (ip), vehicle: saline, run until all animals had died) of the same compound?
**A.** 93 % of control

**Q.** What about the T/C (dose: 12.5 mg/kg/injection, schedule: Q01DX015 (ip), vehicle: water) of the same compound?
**A.** 97 and 105 % of control

**Q.** And the T/C (dose: 16.0 mg/kg/injection, schedule: Q01DX006 (iv), vehicle: saline)?
**A.** 95 % of control

**Q.** What about the T/C (dose: 16.0 mg/kg/injection, schedule: Q01DX009 (ip), vehicle: saline) of the same compound?
**A.** 102 % of control

**Q.** What about the T/C (dose: 16.0 mg/kg/injection, schedule: Q01DX009 (sc), vehicle: saline) of the same compound?
**A.** 103 % of control

**Q.** What about the T/C (dose: 16.0 mg/kg/injection, schedule: Q03HX008 (ip), vehicle: saline) of the same compound?
**A.** 107 % of control

**Q.** And the T/C (dose: 16.0 mg/kg/injection, schedule: Q03HX016 (ip), vehicle: saline)?
**A.** 98 % of control

**Q.** And the T/C (dose: 16.0 mg/kg/injection, schedule: Q03HX024 (ip), vehicle: saline)?
**A.** 96 % of control

**Q.** And the T/C (dose: 25.0 mg/kg/injection, schedule: Q01DX009 (ip), vehicle: water)?
**A.** 101 % of control

**Q.** And the T/C (dose: 25.0 mg/kg/injection, schedule: Q01DX015 (ip), vehicle: clinical formulation)?
**A.** 94 and 100 % of control

**Q.** What about the T/C (dose: 25.0 mg/kg/injection, schedule: Q01DX015 (ip), vehicle: saline, evaluated on day 30) of the same compound?
**A.** 100 (2×), 107, 182 % of control

**Q.** And the T/C (dose: 25.0 mg/kg/injection, schedule: Q01DX015 (ip), vehicle: saline, run until all animals had died)?
**A.** 109 and 114 % of control

**Q.** What about the T/C (dose: 25.0 mg/kg/injection, schedule: Q01DX015 (ip), vehicle: water) of the same compound?
**A.** 98 [5 of 6 alive] and 100 % of control

**Q.** What about the T/C (dose: 32.0 mg/kg/injection, schedule: Q01DX005 (ip), vehicle: saline) of the same compound?
**A.** 105 % of control

**Q.** And the T/C (dose: 32.0 mg/kg/injection, schedule: Q01DX006 (iv), vehicle: saline)?
**A.** 101 % of control

**Q.** And the T/C (dose: 32.0 mg/kg/injection, schedule: Q01DX009 (ip), vehicle: saline)?
**A.** 103 % of control

**Q.** And the T/C (dose: 32.0 mg/kg/injection, schedule: Q01DX009 (sc), vehicle: saline)?
**A.** 98 % of control

**Q.** What about the T/C (dose: 32.0 mg/kg/injection, schedule: Q03HX008 (ip), vehicle: saline) of the same compound?
**A.** 107 % of control

**Q.** And the T/C (dose: 32.0 mg/kg/injection, schedule: Q03HX016 (ip), vehicle: saline)?
**A.** 95 % of control

**Q.** What about the T/C (dose: 32.0 mg/kg/injection, schedule: Q03HX024 (ip), vehicle: saline) of the same compound?
**A.** 100 % of control

**Q.** And the T/C (dose: 50.0 mg/kg/injection, schedule: Q01DX005 (ip), vehicle: saline)?
**A.** 102 % of control (2×)

**Q.** And the T/C (dose: 50.0 mg/kg/injection, schedule: Q01DX009 (ip), vehicle: water)?
**A.** 103 % of control

**Q.** What about the T/C (dose: 50.0 mg/kg/injection, schedule: Q01DX015 (ip), vehicle: clinical formulation) of the same compound?
**A.** 96 and 103 % of control

**Q.** What about the T/C (dose: 50.0 mg/kg/injection, schedule: Q01DX015 (ip), vehicle: saline, evaluated on day 30) of the same compound?
**A.** 98 (2×), 101, 103, 104 (2×), 210 % of control

**Q.** And the T/C (dose: 50.0 mg/kg/injection, schedule: Q01DX015 (ip), vehicle: saline, run until all animals had died)?
**A.** 110 and 121 % of control

**Q.** And the T/C (dose: 50.0 mg/kg/injection, schedule: Q01DX015 (ip), vehicle: water)?
**A.** 96 and 97 % of control

**Q.** And the T/C (dose: 64.0 mg/kg/injection, schedule: Q01DX005 (ip), vehicle: saline)?
**A.** 100 % of control

**Q.** What about the T/C (dose: 64.0 mg/kg/injection, schedule: Q01DX006 (iv), vehicle: saline) of the same compound?
**A.** 98 % of control

**Q.** What about the T/C (dose: 64.0 mg/kg/injection, schedule: Q01DX009 (ip), vehicle: saline) of the same compound?
**A.** 102 % of control

**Q.** What about the T/C (dose: 64.0 mg/kg/injection, schedule: Q01DX009 (oral), vehicle: saline) of the same compound?
**A.** 97 % of control

**Q.** And the T/C (dose: 64.0 mg/kg/injection, schedule: Q01DX009 (sc), vehicle: saline)?
**A.** 95 % of control

**Q.** And the T/C (dose: 64.0 mg/kg/injection, schedule: Q03HX008 (ip), vehicle: saline)?
**A.** 102 % of control

**Q.** What about the T/C (dose: 64.0 mg/kg/injection, schedule: Q03HX016 (ip), vehicle: saline) of the same compound?
**A.** 100 % of control

**Q.** What about the T/C (dose: 64.0 mg/kg/injection, schedule: Q03HX024 (ip), vehicle: saline) of the same compound?
**A.** 96 % of control

**Q.** And the T/C (dose: 64.0 mg/kg/injection, schedule: Q04DX003 (ip), vehicle: saline)?
**A.** 95 % of control

**Q.** What about the T/C (dose: 100.0 mg/kg/injection, schedule: Q01DX005 (ip), vehicle: saline) of the same compound?
**A.** 103 and 105 % of control

**Q.** And the T/C (dose: 100.0 mg/kg/injection, schedule: Q01DX009 (ip), vehicle: water)?
**A.** 100 % of control

**Q.** And the T/C (dose: 100.0 mg/kg/injection, schedule: Q01DX015 (ip), vehicle: clinical formulation)?
**A.** 94 and 103 % of control

**Q.** What about the T/C (dose: 100.0 mg/kg/injection, schedule: Q01DX015 (ip), vehicle: saline, evaluated on day 30) of the same compound?
**A.** 93, 96, 107, 131 % of control

**Q.** And the T/C (dose: 100.0 mg/kg/injection, schedule: Q01DX015 (ip), vehicle: saline, run until all animals had died)?
**A.** 128 and 140 % of control
